# Measured values taken from patent US20210283146A1, “COMPOSITION CONTAINING A 7BETA-HYDROXYCHOLESTEROL AND A LIPID VEHICLE, AND ITS USE IN THE TREATMENT OF NEOPLASTIC PATHOLOGIES” (priority 2018, published 2021).
# At least one structure is not confirmed: it was looked up by name or label, or the drawing left a doubt.
# Columns and labels:
# [1] = Tests on lipid vehicles: dissolution of BIM2b in oils; assay type: physicochemical; conditions: 37° C. 24 h
# [2] = test system: U87-MG line; conditions: U87-MG line (U 87); cited from earlier work
structure (smiles),measurement,setting,value
"CC(=O)O[C@H]1C=C2CC(OC(=O)C3COC(C)(C)O3)CC[C@]2(C)C2CC[C@@]3(C)C(CCC3[C@H](C)CCCC(C)C)C21 (stereo in doubt) [BIM2b, 7-acetoxy-10,13-dimethyl-17-(6-methylheptan-2-yl)-2,3,4,7,8,9,10,11,12,13,14,15,16,17-tetradecahydro-1H-cyclopenta[a]phenanthren-3-yl 2,2-dimethyl-1,3-dioxolane-4-carboxylate]",concentration at which BIM2b dissolves completely,[1]; avocado oil,3 mg of BIM2b/ml of oil
same,concentration at which BIM2b dissolves completely,[1]; grapeseed oil,3 mg of BIM2b/ml of oil
same,concentration at which BIM2b dissolves completely,[1]; olive oil,3 mg of BIM2b/ml of oil
same,concentration at which BIM2b dissolves completely,[1]; peanut oil,3 mg of BIM2b/ml of oil
same,activity in vitro on a human GBM line,[2],has shown activity in vitro
